Results from PMC7819943, “Rice protein-binding microarrays: a tool to detect cis-acting elements near promoter regions in rice”.
This is one part of the list.

Chains of the proteins cited; added tags and fusions are not shown.
UniProt Q0JBA9, entry or part of it: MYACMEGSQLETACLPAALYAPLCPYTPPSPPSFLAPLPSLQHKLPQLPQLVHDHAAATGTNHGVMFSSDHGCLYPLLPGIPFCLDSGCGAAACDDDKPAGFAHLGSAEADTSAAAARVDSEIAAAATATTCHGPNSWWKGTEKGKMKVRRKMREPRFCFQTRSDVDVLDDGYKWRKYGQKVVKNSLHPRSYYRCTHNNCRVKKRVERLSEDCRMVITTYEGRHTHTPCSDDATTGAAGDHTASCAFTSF

Target: OsWRKY34 (Oryza sativa, UniProt Q0JBA9 1-250)
Assay: protein-binding microarray (RPBM); PBS, 2% BSA, 51.3 ng/ul salmon testes DNA, 50 uM zinc acetate, 200 nM TF, 25 C, 1 h; high values mean tight binding
Conditions: protein: recombinant; tags: N-terminal polyhistidine and DsRed monomer fusion (pET32a); label: CyDye5-dUTP incorporated in the synthesized complementary strand; 3' TTTTT single-stranded linker to array surface; dsDNA, one strand shown
Procedure, shortened: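 Transcription factors were made in E. coli BL21-CodonPlus as N-terminal fusions to a polyhistidine tag and DsRed, then purified on Ni–NTA. After primer extension with Cy5-dUTP and blocking with 2% BSA, a custom Agilent array was exposed for 1 h at 25 °C to 200 nM protein in PBS, 2% BSA, salmon testes DNA and 50 µM zinc acetate. Washed arrays were scanned on an Axon 4000B, and the binding signal is per-feature fluorescence intensity in arbitrary units.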

Sequence | binding signal
ATGTTTGACACCGTTGACTTTTTAGTACGTGTTTGACCATCGGAGTCACCTAGTGCAG | 28200 fluorescence intensity (a.u.)
CTCTGCACGTTTCTTTCCCCTAACAAATACATGTACACACCGGAGTCACCTAGTGCAG | 9590 fluorescence intensity (a.u.)
ATCGCCACGTCCACGCCTCGCTCGCGTTTTATCCGTTTCGCGGAGTCACCTAGTGCAG | 11600 fluorescence intensity (a.u.)
CATATGCTCCACACTTTTCTGCTTCACCATGGCATGTTTTCGGAGTCACCTAGTGCAG | 15100 fluorescence intensity (a.u.)
CCGGTCGCTTTCTTCGTCACGTTACCGCGGGAATCATCGTCGGAGTCACCTAGTGCAG | 12400 fluorescence intensity (a.u.)
CGCCACCGCTGCCTGCTCCGATCCCCATTCATCGCGCGAGCGGAGTCACCTAGTGCAG | 8230 fluorescence intensity (a.u.)
GGTGTGTTCTTGGCTCCGATTCGGCCGCGGCTCCCGGTGACGGAGTCACCTAGTGCAG | 9360 fluorescence intensity (a.u.)
GCACGAGGCACATCCACACCGTCCGTCCCATCCGTACGTACGGAGTCACCTAGTGCAG | 10100 fluorescence intensity (a.u.)
GTTCAGAATCTCCCGGACGGAGCACGAACATGTGTGTTGTCGGAGTCACCTAGTGCAG | 8350 fluorescence intensity (a.u.)
AATGGGGCTCTGCATGGGCGGGCACTCCGCTGCCACGGCGCGGAGTCACCTAGTGCAG | 10100 fluorescence intensity (a.u.)
ACACCGTTCAGTTCATCCTCACCTCTTGTTCTCCACAATTCGGAGTCACCTAGTGCAG | 10300 fluorescence intensity (a.u.)
CCCAGCTTCTCCAGCTTCTGGCTTCTTAGTTCATTTTTCACGGAGTCACCTAGTGCAG | 8940 fluorescence intensity (a.u.)
CTTATTCTCATGTGGTGTGATGTGTAATTCACATGGTTGACGGAGTCACCTAGTGCAG | 9280 fluorescence intensity (a.u.)
CACAGATCACCAAGCCACAATCGCCCACACACAAATACTCCGGAGTCACCTAGTGCAG | 10300 fluorescence intensity (a.u.)
TTTTTACACGCGTTTTTTTTACATTGTCGTTTTTTTTTTGCGGAGTCACCTAGTGCAG | 13500 fluorescence intensity (a.u.)
TGTAAGTCATTCTAGCACTTTTCACATTCATATTGATCTACGGAGTCACCTAGTGCAG | 8820 fluorescence intensity (a.u.)
GAGAGATTCGATCCTTTTGTTTGCTTTGTTGTTGCCGTCGCGGAGTCACCTAGTGCAG | 8090 fluorescence intensity (a.u.)
ATTTATATGGGTAATGGGTGGGTAATGGGTAATGTGTATTCGGAGTCACCTAGTGCAG | 16300 fluorescence intensity (a.u.)
GCCCCACTCCCAACCCATCTCCACCGTCCGTCTCCATCCGCGGAGTCACCTAGTGCAG | 10000 fluorescence intensity (a.u.)
TTGATGCTTAATCTGGTGTTTGTTATGTTCATTTTTTCATCGGAGTCACCTAGTGCAG | 12200 fluorescence intensity (a.u.)
TTAAGTTCTTTTCATCGACTCATTTCGTGCTTTTGTATTTCGGAGTCACCTAGTGCAG | 9320 fluorescence intensity (a.u.)

Sequence | binding signal
TCTCACGCGCCTTTCTTTCTGTTCATTTCCTTGGGGTTTACGGAGTCACCTAGTGCAG | 14300 fluorescence intensity (a.u.)
GGGTGTGTCATCTAGATCCCTAAACTCTCAAAATGATTTACGGAGTCACCTAGTGCAG | 9020 fluorescence intensity (a.u.)
TGTGTCACATCCAGTATTGGTTTTTTTATGGGAAGGAGGGCGGAGTCACCTAGTGCAG | 8300 fluorescence intensity (a.u.)
TCGCATCCTCTCCTGTATATATTATCTCCCACTCCTCTCTCGGAGTCACCTAGTGCAG | 9510 fluorescence intensity (a.u.)
GGGAGGTCCTCGATCGATCGATCATCAGGTGGCAGCTGCACGGAGTCACCTAGTGCAG | 8210 fluorescence intensity (a.u.)
GCGTGCGAAACTGGCCCATTATTTCTTTGGATCAATATACCGGAGTCACCTAGTGCAG | 8230 fluorescence intensity (a.u.)
CTCCATCCACGGCGAGCACTCATCCAAACCGTCCATCCACCGGAGTCACCTAGTGCAG | 8110 fluorescence intensity (a.u.)
GGGCTGCCAATTTGCCAAATCATATTCTCACGCCCTACCTCGGAGTCACCTAGTGCAG | 8300 fluorescence intensity (a.u.)
GTTTGTCCATGGCGCCACCACCACCGCCACCACCGCTGCACGGAGTCACCTAGTGCAG | 9900 fluorescence intensity (a.u.)
CTCTCTCTCTCTCTCTCTCTCTCCTCCGCTTCTTCCTACACGGAGTCACCTAGTGCAG | 15700 fluorescence intensity (a.u.)
ACGCCGTCCTCTATGCCGAAATCTTACCGTCACCACTGCCCGGAGTCACCTAGTGCAG | 8330 fluorescence intensity (a.u.)
ATCTTTTCCGCTGTTGCTGCTCCTCCTTTCTCGCTCTCGCCGGAGTCACCTAGTGCAG | 9750 fluorescence intensity (a.u.)
ACGTCATCCCTTATTACATCTTCCCGCGTTTAATTAGTACCGGAGTCACCTAGTGCAG | 11300 fluorescence intensity (a.u.)
ATTAGCATTCCGCCATGTTATCATTCCCTTGTGTTTTTCCCGGAGTCACCTAGTGCAG | 9360 fluorescence intensity (a.u.)
TGATGACGGTTTTACTGGCGCGACCGACCGGACCGGACCCCGGAGTCACCTAGTGCAG | 8440 fluorescence intensity (a.u.)
GTTTGTTTTTATTCTTCTTTCCCCATTTTTTCTCTTGATCCGGAGTCACCTAGTGCAG | 12600 fluorescence intensity (a.u.)
AAATGCCATCGCCGTCACTTTCACTCTGTTAGACACCGTTCGGAGTCACCTAGTGCAG | 8390 fluorescence intensity (a.u.)
CGTCTCGTTTCTCATCTCAAAATTTCGCGCCTCGTCGCCGCGGAGTCACCTAGTGCAG | 8640 fluorescence intensity (a.u.)
AGAATCTTCTTCGTTCGTTCCTCGAACCTCAGATGCATGCCGGAGTCACCTAGTGCAG | 8880 fluorescence intensity (a.u.)
ACTCCTGTTTGTGCAGGTTCTCCATGCATTTCTACTGTAACGGAGTCACCTAGTGCAG | 10000 fluorescence intensity (a.u.)
TTCGCCGTCTCTTTTCCTTTCGCCGCTGCAAACCTCCGTCCGGAGTCACCTAGTGCAG | 10000 fluorescence intensity (a.u.)

Quoted at random: 2 entries already listed, in no set order.
Sequence | binding signal
TCGCATCCTCTCCTGTATATATTATCTCCCACTCCTCTCTCGGAGTCACCTAGTGCAG | 9510 fluorescence intensity (a.u.)
ATTTATATGGGTAATGGGTGGGTAATGGGTAATGTGTATTCGGAGTCACCTAGTGCAG | 16300 fluorescence intensity (a.u.)

2 entries from above in a different format.

| Sequence | binding signal |
| --- | --- |
| CTCCATCCACGGCGAGCACTCATCCAAACCGTCCATCCACCGGAGTCACCTAGTGCAG | 8110 fluorescence intensity (a.u.) |
| TTCGCCGTCTCTTTTCCTTTCGCCGCTGCAAACCTCCGTCCGGAGTCACCTAGTGCAG | 10000 fluorescence intensity (a.u.) |
